# Measurements published in US20070166547A1, “Use of a layer consisting of hydrophobic linear, or two-dimensional polycyclic aromatics as a barrier layer or an encapsulation and electric components constructed with a layer of this type and comprising organic polymers” (priority 2003, published 2007).
# System: synthase of nitrogen oxide (NOC)
# Test: Morphine abstinence model: activity of synthase of nitrogen oxide (radiometric, [3H]L-citrulline)
# Assay type: in vivo, rats Wistar
# Conditions: morphine alone
structure (smiles),measurement,value
"CN1CC[C@]23c4c5ccc(O)c4O[C@H]2[C@@H](O)C=C[C@H]3[C@H]1C5 [Morphine, reference compound]","Activity of NOC, Hypothalamus, Control + Morphine",3.42 ± 0.54 pmol/min/mg of protein
same,"Activity of NOC, Mesencephalon, Control + Morphine",3.08 ± 0.09 pmol/min/mg of protein
